PMC8689486
Read-outs that look alike come from different tables or passages of the source. These are yes or no findings as the source states them, for the method shown. In cells and extracts the contact can be indirect. These calls come from enrichment with a bait or labelling near it, and not all partners need be listed. No binding means not detected with the bait. For some of these results: Where a sequence is shown, tags or fusion partners need not be part of it.

The chains behind the UniProt entries cited, without tags or fusion partners.
UniProt Q7SIG6: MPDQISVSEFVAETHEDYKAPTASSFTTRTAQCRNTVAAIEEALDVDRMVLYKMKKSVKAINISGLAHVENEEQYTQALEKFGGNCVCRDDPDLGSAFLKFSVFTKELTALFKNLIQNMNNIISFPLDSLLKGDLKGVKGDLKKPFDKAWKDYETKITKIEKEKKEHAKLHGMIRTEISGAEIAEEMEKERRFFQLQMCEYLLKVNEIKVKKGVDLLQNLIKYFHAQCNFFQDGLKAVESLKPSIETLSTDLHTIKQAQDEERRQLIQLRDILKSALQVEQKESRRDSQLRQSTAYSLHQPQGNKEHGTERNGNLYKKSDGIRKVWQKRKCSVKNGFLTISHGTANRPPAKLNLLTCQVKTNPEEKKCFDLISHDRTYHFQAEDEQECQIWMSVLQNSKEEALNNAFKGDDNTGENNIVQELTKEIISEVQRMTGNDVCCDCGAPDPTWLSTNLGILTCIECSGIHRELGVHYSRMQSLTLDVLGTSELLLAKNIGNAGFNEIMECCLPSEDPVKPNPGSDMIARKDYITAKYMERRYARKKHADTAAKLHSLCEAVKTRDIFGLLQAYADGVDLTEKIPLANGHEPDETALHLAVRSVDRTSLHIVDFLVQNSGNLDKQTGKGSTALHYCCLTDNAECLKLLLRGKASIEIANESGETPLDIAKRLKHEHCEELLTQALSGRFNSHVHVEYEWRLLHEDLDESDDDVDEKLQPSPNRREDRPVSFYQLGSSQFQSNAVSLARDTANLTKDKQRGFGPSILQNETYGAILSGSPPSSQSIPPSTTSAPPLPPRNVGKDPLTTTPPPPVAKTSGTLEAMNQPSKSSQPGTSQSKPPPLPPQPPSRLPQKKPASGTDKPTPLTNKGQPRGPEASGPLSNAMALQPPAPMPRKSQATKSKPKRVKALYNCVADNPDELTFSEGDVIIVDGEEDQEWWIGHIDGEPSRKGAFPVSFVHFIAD

Columns and labels:
[1] = target: T1, ADP-ribosylation factor-like protein 15 (ARL15) (mouse (endogenous in mouse brain, iWAT and 3T3-L1)) (UniProt Q8BGR6); assay: affinity purification with mass spectrometry; immunoprecipitation with anti-ARL15 antibody and Protein G Sepharose from WT mouse brain lysate (control: homozygous Arl15 knockout brain), WT iWAT lysate and 3T3-L1 lysates at D-3, D0 and D4 (control: IgG); lysis buffer with 5 mM MgCl2; whole precipitates analysed by mass spectrometry
T1 sequence: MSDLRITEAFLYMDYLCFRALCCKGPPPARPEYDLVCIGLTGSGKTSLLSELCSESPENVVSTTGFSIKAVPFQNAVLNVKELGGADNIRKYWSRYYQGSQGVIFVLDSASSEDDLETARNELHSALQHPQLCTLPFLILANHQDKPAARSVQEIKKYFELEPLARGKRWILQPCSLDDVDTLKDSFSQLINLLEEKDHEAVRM

[2] = target: T1, ADP-ribosylation factor-like protein 15 (ARL15) (mouse (endogenous in mouse brain, iWAT and 3T3-L1)); assay: as above; remark: listed apart in the source

## ArfGAP protein containing a SH3 Domain, Ankyrin Repeat And PH Domain 2 (ASAP2) (from UniProt Q7SIG6 1-958)
[1]
  binding: no binding

B1: ADP Ribosylation Factor like GTPase 6 Interacting Protein 5 (ARL6IP5) (protein, UniProt Q8R5J9 1-188)
chain: MDVNLAPLRAWDDFFPGSDRFARPDFRDISKWNNRVVSNLLYYQTNYLVVAAMMISVVGFLSPFNMILGGVIVVLVFMGFVWAAHNKDILRRMKKQYPTAFVMVVMLASYFLISMFGGVMVFVFGITLPLLLMFIHASLRLRNLKNKLENKMEGIGLKKTPMGIILDALEQQEDNINKFADYISKARE
[2]
  binding: binds

B2: adiponectin (protein, UniProt Q60994 18-247)
chain: EDDVTTTEELAPALVPPPKGTCAGWMAGIPGHPGHNGTPGRDGRDGTPGEKGEKGDAGLLGPKGETGDVGMTGAEGPRGFPGTPGRKGEPGEAAYVYRSAFSVGLETRVTVPNVPIRFTKIFYNQQNHYDGSTGKFYCNIPGLYYFSYHITVYMKDVKVSLFKKDKAVLFTYDQYQEKNVDQASGSVLLHLEVGDQVWLQVYGDGDHNGLYADNVNDSTFTGFLLYHDTN
[2]
  binding: no binding

B3: glucose transporter type 4 (GLUT4) (protein, UniProt P14142 1-509)
chain: MPSGFQQIGSDDGEPPRQRVTGTLVLAVFSAVLGSLQFGYNIGVINAPQKVIEQSYNATWLGRQGPGGPDSIPQGTLTTLWALSVAIFSVGGMISSFLIGIISQWLGRKRAMLANNVLAVLGGALMGLANAAASYEILILGRFLIGAYSGLTSGLVPMYVGEIAPTHLRGALGTLNQLAIVIGILVAQVLGLESMLGTATLWPLLLALTVLPALLQLILLPFCPESPRYLYIIRNLEGPARKSLKRLTGWADVSDALAELKDEKRKLERERPMSLLQLLGSRTHRQPLIIAVVLQLSQQLSGINAVFYYSTSIFESAGVGQPAYATIGAGVVNTVFTLVSVLLVERAGRRTLHLLGLAGMCGCAILMTVALLLLERVPAMSYVSIVAIFGFVAFFEIGPGPIPWFIVAELFSQGPRPAAMAVAGFSNWTCNFIVGMGFQYVADAMGPYVFLLFAVLLLGFFIFTFLKVPETRGRTFDQISAAFRRTPSLLEQEVKPSTELEYLGPDEND
[2]
  binding: no binding
